From article PMC8758144
These are yes or no findings as the source states them, for the method shown. Binding seen in cells or lysates may run through a third protein. Here binding means that the protein was enriched with, or labelled near, the bait; the list need not be complete.

By UniProt entry, the sequences of proteins in these tests, tags left out.
UniProt P55884: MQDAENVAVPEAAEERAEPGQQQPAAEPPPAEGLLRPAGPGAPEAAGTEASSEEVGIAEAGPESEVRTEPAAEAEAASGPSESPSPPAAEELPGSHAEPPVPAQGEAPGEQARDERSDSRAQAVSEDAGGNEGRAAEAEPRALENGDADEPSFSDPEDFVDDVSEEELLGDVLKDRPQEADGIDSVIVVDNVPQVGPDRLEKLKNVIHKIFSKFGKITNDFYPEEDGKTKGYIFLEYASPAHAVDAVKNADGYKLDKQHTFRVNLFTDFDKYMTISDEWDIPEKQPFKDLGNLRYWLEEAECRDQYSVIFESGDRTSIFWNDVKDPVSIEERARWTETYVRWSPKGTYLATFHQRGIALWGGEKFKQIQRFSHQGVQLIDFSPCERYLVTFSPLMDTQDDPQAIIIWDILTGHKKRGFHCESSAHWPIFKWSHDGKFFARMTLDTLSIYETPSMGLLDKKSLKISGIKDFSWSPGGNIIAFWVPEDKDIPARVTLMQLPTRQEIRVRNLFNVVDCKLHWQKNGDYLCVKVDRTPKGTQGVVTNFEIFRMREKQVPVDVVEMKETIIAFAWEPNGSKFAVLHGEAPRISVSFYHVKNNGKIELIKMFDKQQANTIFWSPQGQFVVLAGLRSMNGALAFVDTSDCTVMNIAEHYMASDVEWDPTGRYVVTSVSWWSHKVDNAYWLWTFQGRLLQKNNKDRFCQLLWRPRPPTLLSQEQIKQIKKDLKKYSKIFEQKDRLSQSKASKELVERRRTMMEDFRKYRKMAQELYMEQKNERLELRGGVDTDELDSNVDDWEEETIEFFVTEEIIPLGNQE
UniProt O00303: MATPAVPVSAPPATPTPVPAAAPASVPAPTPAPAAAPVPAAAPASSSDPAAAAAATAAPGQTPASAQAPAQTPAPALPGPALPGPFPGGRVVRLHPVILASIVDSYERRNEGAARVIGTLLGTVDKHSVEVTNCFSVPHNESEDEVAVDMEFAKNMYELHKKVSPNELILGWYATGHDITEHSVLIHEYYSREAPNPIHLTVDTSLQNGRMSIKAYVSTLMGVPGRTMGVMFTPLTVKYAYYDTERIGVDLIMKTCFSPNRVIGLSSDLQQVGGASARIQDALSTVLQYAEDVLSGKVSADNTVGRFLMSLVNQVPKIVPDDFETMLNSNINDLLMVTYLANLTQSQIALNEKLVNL
UniProt O15371: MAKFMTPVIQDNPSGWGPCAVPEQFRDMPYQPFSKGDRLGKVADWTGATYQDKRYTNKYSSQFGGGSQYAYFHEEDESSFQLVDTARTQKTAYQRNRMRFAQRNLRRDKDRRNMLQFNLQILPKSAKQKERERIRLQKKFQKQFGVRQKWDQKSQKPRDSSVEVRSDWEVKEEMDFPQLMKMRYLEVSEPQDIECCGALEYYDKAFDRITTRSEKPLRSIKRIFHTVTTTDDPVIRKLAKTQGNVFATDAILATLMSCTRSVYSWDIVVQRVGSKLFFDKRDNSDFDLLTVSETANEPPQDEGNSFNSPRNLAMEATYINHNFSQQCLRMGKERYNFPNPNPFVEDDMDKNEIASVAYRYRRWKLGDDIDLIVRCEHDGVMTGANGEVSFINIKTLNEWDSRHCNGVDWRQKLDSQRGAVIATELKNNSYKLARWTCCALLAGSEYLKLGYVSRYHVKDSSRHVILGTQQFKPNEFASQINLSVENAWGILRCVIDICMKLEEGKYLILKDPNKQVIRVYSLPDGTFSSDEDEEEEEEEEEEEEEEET

Target: eukaryotic initiation factor 3 subunit EIF3B (human (endogenous in Jurkat)) (UniProt P55884)
Test: affinity purification with mass spectrometry; anti-EIF3B antibody (Bethyl A301-761A) on Dynabeads; NP40 lysis buffer lysate of 4-thiouridine-labelled, 365 nm UV-crosslinked Jurkat cells (activated 5 hr with PMA + ionomycin; non-activated control), MNase-treated; Coomassie-stained gel bands matching the phosphorimage excised and identified by one-dimensional LC-MS/MS

| Substance | binding |
| --- | --- |
| eukaryotic initiation factor 3 subunit EIF3F (from UniProt O00303 1-357) | binds |
| eukaryotic initiation factor 3 subunit EIF3D (from UniProt O15371 1-548) | binds |
